Assay results reported in the supplement of paper PMC10849652.
The other results are listed elsewhere or left out. Residues, ends and D or L forms follow the SMILES beside them. *: point of attachment. Cbz = O=C(OCc1ccccc1)*

Chains of the proteins cited; added tags and fusions are not shown. Lines headed by an entry give the natural chain unless they say otherwise; changes in a name come on top.
UniProt O43809, whole entry, looked up: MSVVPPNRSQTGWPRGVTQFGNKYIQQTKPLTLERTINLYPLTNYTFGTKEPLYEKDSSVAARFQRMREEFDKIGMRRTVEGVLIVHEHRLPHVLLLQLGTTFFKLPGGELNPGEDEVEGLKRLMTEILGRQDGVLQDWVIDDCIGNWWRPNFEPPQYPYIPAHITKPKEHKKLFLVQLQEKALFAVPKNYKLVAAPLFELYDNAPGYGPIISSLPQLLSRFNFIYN
UniProt Q6N063: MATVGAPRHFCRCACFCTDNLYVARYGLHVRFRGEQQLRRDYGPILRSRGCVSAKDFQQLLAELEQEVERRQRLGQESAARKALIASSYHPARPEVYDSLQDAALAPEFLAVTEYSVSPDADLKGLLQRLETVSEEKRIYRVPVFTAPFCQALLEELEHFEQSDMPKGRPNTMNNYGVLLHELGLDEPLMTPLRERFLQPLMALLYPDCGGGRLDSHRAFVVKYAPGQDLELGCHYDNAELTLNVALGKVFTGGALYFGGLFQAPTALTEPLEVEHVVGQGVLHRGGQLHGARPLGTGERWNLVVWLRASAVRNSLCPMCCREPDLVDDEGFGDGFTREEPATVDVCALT
UniProt P22059, whole entry, looked up: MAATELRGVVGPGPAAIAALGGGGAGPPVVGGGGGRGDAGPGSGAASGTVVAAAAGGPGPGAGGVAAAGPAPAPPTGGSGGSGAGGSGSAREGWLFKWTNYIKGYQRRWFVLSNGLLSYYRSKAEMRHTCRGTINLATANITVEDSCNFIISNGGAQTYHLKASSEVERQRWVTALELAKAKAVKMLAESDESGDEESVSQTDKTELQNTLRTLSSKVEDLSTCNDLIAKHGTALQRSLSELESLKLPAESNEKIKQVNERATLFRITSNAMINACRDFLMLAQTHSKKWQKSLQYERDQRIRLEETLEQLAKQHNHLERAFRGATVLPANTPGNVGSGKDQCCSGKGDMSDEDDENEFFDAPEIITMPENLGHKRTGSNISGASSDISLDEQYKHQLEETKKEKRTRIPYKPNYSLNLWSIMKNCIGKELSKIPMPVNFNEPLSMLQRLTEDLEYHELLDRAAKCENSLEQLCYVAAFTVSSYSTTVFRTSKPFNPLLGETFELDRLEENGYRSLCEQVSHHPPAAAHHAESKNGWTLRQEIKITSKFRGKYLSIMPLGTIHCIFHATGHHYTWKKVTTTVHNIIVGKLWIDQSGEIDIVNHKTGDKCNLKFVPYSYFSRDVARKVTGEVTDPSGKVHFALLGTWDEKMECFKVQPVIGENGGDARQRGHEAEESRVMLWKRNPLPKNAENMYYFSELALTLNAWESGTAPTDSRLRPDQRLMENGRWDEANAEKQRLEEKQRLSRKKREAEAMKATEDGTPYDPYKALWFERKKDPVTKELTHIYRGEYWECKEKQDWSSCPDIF
UniProt Q8WVJ2: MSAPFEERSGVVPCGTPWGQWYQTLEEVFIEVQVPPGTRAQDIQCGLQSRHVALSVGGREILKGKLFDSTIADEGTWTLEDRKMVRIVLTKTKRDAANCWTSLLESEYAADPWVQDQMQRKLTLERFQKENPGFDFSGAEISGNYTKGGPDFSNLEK
UniProt Q8WZ82: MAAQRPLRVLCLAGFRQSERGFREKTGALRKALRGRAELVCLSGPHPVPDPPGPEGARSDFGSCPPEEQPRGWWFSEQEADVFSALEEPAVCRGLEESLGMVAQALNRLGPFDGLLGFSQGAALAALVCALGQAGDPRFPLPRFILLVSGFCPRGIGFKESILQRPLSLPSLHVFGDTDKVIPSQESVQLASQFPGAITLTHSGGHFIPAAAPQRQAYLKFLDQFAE
UniProt Q9NRP0: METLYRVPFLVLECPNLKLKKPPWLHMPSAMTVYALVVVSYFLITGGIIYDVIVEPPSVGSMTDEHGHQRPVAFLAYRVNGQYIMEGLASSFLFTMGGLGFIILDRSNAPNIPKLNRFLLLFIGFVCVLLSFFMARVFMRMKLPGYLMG
UniProt Q86WC4: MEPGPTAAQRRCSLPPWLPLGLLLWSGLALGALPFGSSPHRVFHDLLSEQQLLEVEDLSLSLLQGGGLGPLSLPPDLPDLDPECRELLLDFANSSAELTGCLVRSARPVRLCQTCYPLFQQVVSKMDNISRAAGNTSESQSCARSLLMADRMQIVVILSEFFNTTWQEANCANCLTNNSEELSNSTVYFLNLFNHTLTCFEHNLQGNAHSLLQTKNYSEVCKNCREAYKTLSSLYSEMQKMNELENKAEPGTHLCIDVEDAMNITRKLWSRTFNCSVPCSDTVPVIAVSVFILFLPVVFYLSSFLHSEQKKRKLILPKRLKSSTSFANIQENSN
UniProt O15460: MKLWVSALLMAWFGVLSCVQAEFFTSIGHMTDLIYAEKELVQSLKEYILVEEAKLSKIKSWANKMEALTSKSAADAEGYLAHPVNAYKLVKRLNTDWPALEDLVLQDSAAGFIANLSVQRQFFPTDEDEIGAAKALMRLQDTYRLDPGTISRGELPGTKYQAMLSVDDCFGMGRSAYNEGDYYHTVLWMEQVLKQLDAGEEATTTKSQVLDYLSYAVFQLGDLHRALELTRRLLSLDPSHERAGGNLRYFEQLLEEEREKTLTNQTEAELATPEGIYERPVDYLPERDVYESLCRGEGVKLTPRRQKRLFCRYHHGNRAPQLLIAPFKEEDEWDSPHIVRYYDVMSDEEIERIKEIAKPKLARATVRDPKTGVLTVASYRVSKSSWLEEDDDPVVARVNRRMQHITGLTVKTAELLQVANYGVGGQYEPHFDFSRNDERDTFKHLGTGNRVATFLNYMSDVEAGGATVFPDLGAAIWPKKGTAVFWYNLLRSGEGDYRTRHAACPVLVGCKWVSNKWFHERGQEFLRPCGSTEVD
UniProt Q5BJF6: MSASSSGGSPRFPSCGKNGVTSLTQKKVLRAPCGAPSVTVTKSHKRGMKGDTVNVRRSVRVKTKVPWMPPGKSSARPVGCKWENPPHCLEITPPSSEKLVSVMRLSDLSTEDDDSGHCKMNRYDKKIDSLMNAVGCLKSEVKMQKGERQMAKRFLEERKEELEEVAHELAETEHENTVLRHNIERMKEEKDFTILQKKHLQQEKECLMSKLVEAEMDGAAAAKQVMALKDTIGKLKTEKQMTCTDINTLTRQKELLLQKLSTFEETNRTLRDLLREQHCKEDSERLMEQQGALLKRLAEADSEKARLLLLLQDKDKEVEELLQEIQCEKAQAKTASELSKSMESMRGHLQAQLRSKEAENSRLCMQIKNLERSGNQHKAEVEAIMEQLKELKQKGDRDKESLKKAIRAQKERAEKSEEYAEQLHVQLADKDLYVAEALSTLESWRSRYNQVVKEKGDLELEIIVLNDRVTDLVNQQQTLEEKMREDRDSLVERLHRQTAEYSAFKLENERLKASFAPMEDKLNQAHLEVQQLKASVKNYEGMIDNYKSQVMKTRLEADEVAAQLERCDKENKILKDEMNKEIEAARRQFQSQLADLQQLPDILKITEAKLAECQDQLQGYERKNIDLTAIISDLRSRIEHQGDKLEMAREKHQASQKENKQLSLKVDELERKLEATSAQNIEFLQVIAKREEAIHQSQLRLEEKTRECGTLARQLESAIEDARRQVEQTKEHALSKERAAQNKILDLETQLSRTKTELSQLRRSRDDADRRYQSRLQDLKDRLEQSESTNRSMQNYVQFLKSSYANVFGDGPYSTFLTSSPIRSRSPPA
UniProt Q9H4L5: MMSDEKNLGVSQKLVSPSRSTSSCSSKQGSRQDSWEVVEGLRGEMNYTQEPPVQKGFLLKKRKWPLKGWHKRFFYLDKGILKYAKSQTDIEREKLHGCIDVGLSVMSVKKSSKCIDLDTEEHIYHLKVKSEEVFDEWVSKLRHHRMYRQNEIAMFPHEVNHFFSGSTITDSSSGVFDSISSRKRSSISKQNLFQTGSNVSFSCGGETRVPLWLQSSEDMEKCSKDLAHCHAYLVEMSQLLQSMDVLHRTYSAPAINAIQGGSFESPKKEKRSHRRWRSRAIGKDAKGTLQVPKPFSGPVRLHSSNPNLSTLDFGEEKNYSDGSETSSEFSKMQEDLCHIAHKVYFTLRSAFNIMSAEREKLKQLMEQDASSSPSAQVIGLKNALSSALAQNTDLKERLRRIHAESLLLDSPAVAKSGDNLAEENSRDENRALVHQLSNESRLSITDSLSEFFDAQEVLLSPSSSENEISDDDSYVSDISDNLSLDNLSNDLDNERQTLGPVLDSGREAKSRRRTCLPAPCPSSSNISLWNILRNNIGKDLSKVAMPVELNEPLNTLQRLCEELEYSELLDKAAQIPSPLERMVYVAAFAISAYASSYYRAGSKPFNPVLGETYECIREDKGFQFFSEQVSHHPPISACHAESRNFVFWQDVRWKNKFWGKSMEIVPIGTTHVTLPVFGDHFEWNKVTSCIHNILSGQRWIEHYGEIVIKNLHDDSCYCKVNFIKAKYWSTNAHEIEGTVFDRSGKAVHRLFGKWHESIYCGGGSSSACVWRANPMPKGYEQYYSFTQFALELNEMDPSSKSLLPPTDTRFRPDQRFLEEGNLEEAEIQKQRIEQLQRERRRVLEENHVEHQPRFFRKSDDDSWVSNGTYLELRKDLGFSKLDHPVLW
UniProt P0C025: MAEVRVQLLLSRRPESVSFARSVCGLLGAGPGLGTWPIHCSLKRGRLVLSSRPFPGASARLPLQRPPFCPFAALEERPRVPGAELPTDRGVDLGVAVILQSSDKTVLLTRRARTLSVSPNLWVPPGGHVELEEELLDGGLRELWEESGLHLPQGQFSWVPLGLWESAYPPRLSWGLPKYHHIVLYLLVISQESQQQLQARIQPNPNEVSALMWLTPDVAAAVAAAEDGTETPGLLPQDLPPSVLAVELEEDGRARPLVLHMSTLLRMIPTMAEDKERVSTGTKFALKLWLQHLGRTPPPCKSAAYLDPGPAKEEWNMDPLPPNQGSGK
UniProt Q86UD1: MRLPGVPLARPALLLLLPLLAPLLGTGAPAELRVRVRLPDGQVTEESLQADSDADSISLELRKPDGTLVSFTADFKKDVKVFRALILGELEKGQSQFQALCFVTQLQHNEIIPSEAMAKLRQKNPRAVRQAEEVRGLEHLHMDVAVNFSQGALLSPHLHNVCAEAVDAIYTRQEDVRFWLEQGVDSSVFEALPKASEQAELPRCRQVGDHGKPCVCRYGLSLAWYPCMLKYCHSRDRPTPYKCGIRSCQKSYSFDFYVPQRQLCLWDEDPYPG
UniProt Q9H1P3, whole entry, looked up: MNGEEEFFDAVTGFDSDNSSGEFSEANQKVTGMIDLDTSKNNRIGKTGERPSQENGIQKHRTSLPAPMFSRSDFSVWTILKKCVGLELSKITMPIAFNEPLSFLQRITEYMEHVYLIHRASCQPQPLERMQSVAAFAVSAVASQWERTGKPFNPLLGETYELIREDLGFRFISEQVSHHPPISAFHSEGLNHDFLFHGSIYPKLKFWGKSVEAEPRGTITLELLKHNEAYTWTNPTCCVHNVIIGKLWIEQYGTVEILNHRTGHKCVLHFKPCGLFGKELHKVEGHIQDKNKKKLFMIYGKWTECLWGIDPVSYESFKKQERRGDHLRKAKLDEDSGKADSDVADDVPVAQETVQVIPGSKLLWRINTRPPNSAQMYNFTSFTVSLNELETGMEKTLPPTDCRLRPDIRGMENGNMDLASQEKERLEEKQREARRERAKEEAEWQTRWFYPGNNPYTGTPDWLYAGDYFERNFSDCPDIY
UniProt Q8WV74: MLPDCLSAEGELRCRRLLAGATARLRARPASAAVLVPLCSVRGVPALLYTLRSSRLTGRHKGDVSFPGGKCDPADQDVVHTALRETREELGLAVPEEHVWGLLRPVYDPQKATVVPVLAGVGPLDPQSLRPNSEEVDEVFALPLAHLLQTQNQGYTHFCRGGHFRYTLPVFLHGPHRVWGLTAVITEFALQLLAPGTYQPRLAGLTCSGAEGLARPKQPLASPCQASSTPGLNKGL
UniProt Q9UBU9: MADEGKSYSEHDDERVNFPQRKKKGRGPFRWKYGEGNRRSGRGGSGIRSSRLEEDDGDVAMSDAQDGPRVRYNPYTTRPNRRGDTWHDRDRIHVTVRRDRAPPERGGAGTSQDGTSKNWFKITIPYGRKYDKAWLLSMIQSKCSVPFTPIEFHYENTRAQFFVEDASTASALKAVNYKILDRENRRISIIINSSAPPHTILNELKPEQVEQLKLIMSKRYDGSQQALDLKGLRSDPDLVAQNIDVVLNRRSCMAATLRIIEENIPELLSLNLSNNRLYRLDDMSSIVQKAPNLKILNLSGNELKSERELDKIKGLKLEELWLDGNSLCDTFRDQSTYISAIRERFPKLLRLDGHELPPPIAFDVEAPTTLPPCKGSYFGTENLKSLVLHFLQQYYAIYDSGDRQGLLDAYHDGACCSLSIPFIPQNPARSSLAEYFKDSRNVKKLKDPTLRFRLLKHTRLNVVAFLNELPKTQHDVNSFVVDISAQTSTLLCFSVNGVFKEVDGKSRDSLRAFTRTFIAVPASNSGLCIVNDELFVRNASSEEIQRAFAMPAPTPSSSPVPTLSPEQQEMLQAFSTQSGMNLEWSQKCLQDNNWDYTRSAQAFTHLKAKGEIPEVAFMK

Legend:
Test in all cases: log2 fold change, soluble protein after heating vs DMSO (PISA); higher = thermal stabilisation; K562 cells, 10 uM, 30 min; active = over 0.2 and 3.5 SD of the protein, either way, in both replicates (recomputed)
[1] = compound: C1COCCN1CCN2C3=CC=CC=C3N=C2NC(=O)C4=CC(=CC=C4)[N+](=O)[O-] [IRAK-1-4 Inhibitor I]
Procedure, shortened: (§1)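 Soluble protein was quantified by TMTpro 16plex LC-MS/MS after channel sums were equalised. It was obtained as the supernatant after 21,000xg for 90 min from pooled aliquots of K562 cells (2×10^6 cells/mL, 10 μM compound, 30 min) heated for 3 min across 48°C-58°C and extracted in PBS with 0.5% NP-40 at 4°C. Thermal stability values are relative to control samples and come from duplicates. They are given as log2 fold changes.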

[2] = compound: C=CC(=O)N1CCC[C@@H](n2nc(-c3ccc(Oc4ccccc4)cc3)c3c(N)ncnc32)C1 [ibrutinib]
Procedure, shortened: as §1

[3] = compound: CC(=O)c1cnc2ccc(-c3cc(Cl)c(O)c(Cl)c3)nc2c1N[C@H]1CC[C@H](CN(C)C)CC1
Procedure, shortened: as §1

[4] = compound: CC(C)(C)Cn1c(N)nc2ccc(-c3[nH]c(C(C)(C)C)nc3-c3ccc(F)cc3)nc21 [ralimetinib]
Procedure, shortened: as §1

[5] = compound: CC(C)(O)CC(=O)NCCn1ccc2ncnc(Nc3ccc(Oc4cccc(C(F)(F)F)c4)c(Cl)c3)c21
Procedure, shortened: as §1

[6] = compound: CC(C)C1=C2N=C(C=C(N2N=C1)NCC3=CC=CC=C3)NCCCCCCN
Procedure, shortened: as §1

[7] = compound: CC(C)C[C@@H](C=O)NC(=O)[C@H](CC(C)C)NC(=O)[C@H](CC(C)C)NC(=O)OCc1ccccc1
Procedure, shortened: as §1

[8] = compound: CC(C)N(C[C@H]1O[C@@H](n2cnc3c(N)ncnc32)[C@H](O)[C@@H]1O)[C@H]1C[C@@H](CCc2nc3cc(C(C)(C)C)ccc3[nH]2)C1 [pinometostat]
Procedure, shortened: as §1

[9] = compound: CC1=C(C2=C(C=C1)C(=O)C3=CC=CC=C3N2CCCN)C
Procedure, shortened: as §1

[10] = compound: CC1=C(C=C(C=C1)NC(=O)C2=CC(=CC=C2)C(C)(C)C#N)NC3=CC4=C(C=C3)N=CN(C4=O)C
Procedure, shortened: as §1

[11] = compound: CC1=C(C=C(C=C1)NC(=O)C2=CC(=CC=C2)N(C)C)NC(=O)C3=CC=C(C=C3)O
Procedure, shortened: as §1

[12] = compound: CC1=CC=C(C=C1)SC2=C3C=C(SC3=CN=C2)C(=O)N
Procedure, shortened: as §1

[13] = compound: CC1=NC(=CC=C1)C2=C(N=C(N2)C(C)(C)C)C3=CC4=NC=CN=C4C=C3
Procedure, shortened: as §1

[14] = compound: CCCCN(Cc1ccc(C(=O)NO)cc1)C(=O)Nc1ccccc1 [Nexturastat A]
Procedure, shortened: as §1

[15] = compound: CCCS(=O)(=O)Nc1ccc(F)c(C(=O)c2c[nH]c3ncc(-c4ccc(Cl)cc4)cc23)c1F [vemurafenib]
Procedure, shortened: as §1

[16] = compound: CCCS(=O)(=O)Nc1ccc(F)c(C(=O)c2c[nH]c3ncc(Cl)cc23)c1F
Procedure, shortened: as §1

[17] = compound: CCCc1cc(C)[nH]c(=O)c1CNC(=O)c1cc(-c2ccnc(N3CCN(C)CC3)c2)cc2c1cnn2C(C)C
Procedure, shortened: as §1

[18] = compound: CCN(CC)Cc1ccc2cc(COC(=O)Nc3ccc(C(=O)NO)cc3)ccc2c1 [givinostat]
Procedure, shortened: as §1

[19] = compound: CCN(CCCOc1ccc2c(Nc3cc(CC(=O)Nc4cccc(F)c4)[nH]n3)ncnc2c1)CCOP(=O)(O)O [barasertib]
Procedure, shortened: as §1

[20] = compound: CC1=C(C(CC(=O)N1)C2=CC=C(C=C2)C(F)(F)F)C(=O)NC3=C(C=C4C(=C3)C=NN4)F
Procedure, shortened: as §1

Measured: log2 fold change

NUDT21 (UniProt O43809)
active: [3] -0.33 | [9] 0.246
inactive: [1] -0.057 | [2] 0.014 | [4] -0.022 | [5] 0.077 | [6] 0.066 | [7] 0.034 | [8] -0.022 | [10] 0.052 | [11] 0.077 | [12] -0.007 | [13] 0.019 | [14] 0 | [15] 0.02 | [16] -0.053 | [17] -0.013 | [18] -0.033 | [19] -0.023

P4HA1 isoform 2 (UniProt P13674)
inactive: [1] -0.146 | [2] 0.009 | [3] -0.133 | [4] 0.014 | [5] 0.035 | [7] 0.024 | [8] 0.116 | [20] 0.113 | [9] 0.051 | [10] -0.041 | [11] -0.101 | [12] -0.087 | [13] -0.105 | [14] 0.001 | [15] -0.032 | [16] -0.065 | [17] 0.014 | [19] 0

OGFOD2 (UniProt Q6N063)
inactive: [1] 0.016 | [2] -0.023 | [3] -0.102 | [4] 0.011 | [5] -0.031 | [6] -0.079 | [7] 0.002 | [8] 0.025 | [9] -0.073 | [11] -0.007 | [13] -0.091 | [14] 0.117 | [15] 0.001 | [17] 0.037 | [18] -0.041 | [19] 0.059

OSBP (UniProt P22059)
inactive: [1] 0 | [2] -0.067 | [3] -0.029 | [4] -0.009 | [5] -0.076 | [6] 0.091 | [7] 0.017 | [8] -0.002 | [9] 0.024 | [10] 0.098 | [11] -0.011 | [12] -0.028 | [13] 0.022 | [14] -0.073 | [15] 0.015 | [16] 0.027 | [17] -0.003 | [18] -0.052 | [19] -0.001

NUDCD2 (UniProt Q8WVJ2)
inactive: [1] -0.032 | [2] -0.035 | [3] -0.027 | [4] 0.033 | [5] -0.045 | [6] -0.248 | [7] -0.012 | [8] 0.066 | [9] -0.064 | [10] -0.018 | [11] -0.109 | [12] 0.117 | [13] 0.019 | [14] 0.082 | [15] -0.014 | [16] 0.008 | [17] -0.039 | [18] 0.047 | [19] 0.104

OVCA2 (UniProt Q8WZ82)
inactive: [1] -0.087 | [2] 0.023 | [3] -0.019 | [4] -0.1 | [7] 0.095 | [8] 0.021 | [11] -0.132 | [12] 0.013 | [13] 0.086 | [16] -0.048 | [17] -0.305 | [19] 0.06

OSTC (UniProt Q9NRP0)
inactive: [1] -0.002 | [2] -0.013 | [3] -0.022 | [4] 0.004 | [5] -0.055 | [7] -0.046 | [8] -0.023 | [9] 0.119 | [10] 0.001 | [11] 0.001 | [12] 0.047 | [13] 0.058 | [14] -0.114 | [15] -0.115 | [16] 0.068 | [17] -0.058 | [18] 0.076 | [19] 0.061
active: [6] -0.377

NUP107 (UniProt P57740)
inactive: [1] -0.054 | [2] -0.152 | [3] -0.035 | [4] 0.035 | [5] 0.023 | [6] -0.005 | [7] 0.089 | [8] 0.165 | [9] -0.052 | [10] -0.035 | [11] 0.085 | [12] 0.117 | [13] 0.012 | [14] 0.17 | [15] 0.1 | [16] 0.219 | [17] -0.031 | [18] 0.011 | [19] 0.017

OBSCN (UniProt A6NGQ3)
inactive: [1] -0.147 | [2] -0.145 | [3] 0.064 | [4] -0.262 | [7] 0.059 | [8] -0.053 | [20] 0.103 | [9] -0.03 | [10] 0.102 | [11] -0.001 | [12] -0.057 | [13] -0.128 | [16] -0.088 | [19] 0.23

NUP98 (UniProt P52948)
inactive: [1] -0.021 | [2] -0.048 | [3] -0.146 | [4] 0.04 | [5] 0 | [6] -0.071 | [7] 0.041 | [8] 0.03 | [9] 0.013 | [10] -0.042 | [11] 0.064 | [12] -0.003 | [13] 0.031 | [14] 0.061 | [15] 0.037 | [16] 0.068 | [17] 0.036 | [18] 0.081 | [19] 0.037

OSTM1 (UniProt Q86WC4)
inactive: [1] 0.05 | [2] -0.006 | [3] 0.013 | [4] 0.042 | [5] -0.081 | [6] -0.041 | [7] 0.079 | [8] -0.056 | [9] -0.024 | [10] -0.051 | [11] -0.047 | [12] 0 | [13] 0.056 | [14] -0.033 | [15] 0.017 | [16] 0.093 | [17] -0.03 | [18] 0.146 | [19] -0.023

P4HA2 (UniProt O15460)
inactive: [1] -0.072 | [2] 0.168 | [4] 0.038 | [5] 0.045 | [6] -0.017 | [7] 0.062 | [8] 0.06 | [9] 0 | [10] -0.038 | [11] -0.014 | [12] 0.033 | [13] -0.102 | [14] 0.402 | [15] -0.093 | [16] -0.038 | [17] 0.043 | [18] 0.058 | [19] 0.101

ODF2 (UniProt Q5BJF6)
inactive: [5] 0.005 | [14] 0.408

OSBPL3 (UniProt Q9H4L5)
inactive: [1] -0.083 | [3] -0.277 | [4] 0.309 | [5] 0.252 | [6] 0.506 | [7] 0.206 | [8] 0.204 | [9] -0.069 | [10] 0.35 | [11] 0.04 | [12] 0.006 | [13] -0.062 | [14] 0.471 | [15] -0.267 | [16] -0.09 | [18] -0.204

NUDT17 (UniProt P0C025)
inactive: [2] 0.462 | [3] 0.02 | [4] -0.075 | [5] 0.265 | [6] 0.009 | [7] 0.02 | [20] -0.05 | [9] 0.064 | [10] 0.325 | [11] -0.233 | [14] 0.378 | [15] 0.116 | [17] -0.016 | [18] -0.014 | [19] 0.114

2 consecutive records already listed:
P4HA1 isoform 2 (UniProt P13674)
inactive: [1] -0.146 | [2] 0.009 | [3] -0.133 | [4] 0.014 | [5] 0.035 | [7] 0.024 | [8] 0.116 | [20] 0.113 | [9] 0.051 | [10] -0.041 | [11] -0.101 | [12] -0.087 | [13] -0.105 | [14] 0.001 | [15] -0.032 | [16] -0.065 | [17] 0.014 | [19] 0

OGFOD2 (UniProt Q6N063)
inactive: [1] 0.016 | [2] -0.023 | [3] -0.102 | [4] 0.011 | [5] -0.031 | [6] -0.079 | [7] 0.002 | [8] 0.025 | [9] -0.073 | [11] -0.007 | [13] -0.091 | [14] 0.117 | [15] 0.001 | [17] 0.037 | [18] -0.041 | [19] 0.059

Going on with the list.

OAF (UniProt Q86UD1)
inactive: [4] -0.041 | [6] 0.009 | [7] -0.013 | [10] -0.005 | [11] -0.119 | [17] -0.346 | [18] -0.071

OSBPL2 (UniProt Q9H1P3)
inactive: [12] -0.203 | [16] 0 | [17] -0.264

NUDT8 (UniProt Q8WV74)
inactive: [1] 0.054 | [2] -0.047 | [4] -0.049 | [6] -0.034 | [7] 0.023 | [8] -0.084 | [20] -0.005 | [9] 0.037 | [10] -0.17 | [11] 0 | [12] 0.086 | [13] 0.118 | [15] -0.094 | [16] 0.003 | [17] -0.14 | [18] -0.019 | [19] 0.079

NXF1 (UniProt Q9UBU9)
inactive: [1] -0.344 | [3] -0.069 | [4] 0.207 | [7] 0.142 | [8] 0.184 | [20] 0.325 | [9] -0.052 | [11] 0.033 | [12] -0.082 | [13] -0.259 | [16] -0.265
